Test results taken from patent publication US9045398B2, “Sulfonium salt and photo-acid generator” (SAN-APRO LTD., priority 2013, dated 2015).
Some results were stated once for a whole list of compounds, not compound by compound.

Assay: Evaluation of light sensitivity: acid generation ratio after ArF excimer lamp exposure (Rhodamine B base colour reagent)
Assay type: physicochemical
Settings: ArF excimer lamp 193 nm; versus Comparative Examples 1 to 3
Experimental: The photo-acid generators (A-1) to (A-10) of the present invention and the photo-acid generators (H-1) to (H-3) of comparative examples were each diluted with acetonitrile so that their molar concentrations would be 2.5 mM, and then Rhodamine B base (a color reagent for an acid, produced by Sigma-Aldrich) was added to the respective solutions so that the molar concentration would be 2.5 mM, yielding sample solutions.
A sample solution obtained above was put into a quartz cell having an optical path length of 1 cm and then was exposed to light under prescribed conditions using an ArF excimer lamp (center wavelength=193 nm). The absorbance near 556 nm of the respective sample solutions after exposure to light was measured with a spectrophotometer (UV-vis) because the photo-acid generator in a sample solution is decomposed upon exposure to light to generate an acid, which then reacts with Rhodamine B base and, as a result, the absorbance near 556 nm increases. Based on the absorbance at 556 nm, the molar concentration of the acid in the sample solution after exposure to light was determined using a calibration curve (standard substance: p-toluenesulfonic acid). From the acid concentration determined and the initial concentration of the photo-acid generator, the acid generation ratio was determined by the following calculation.
The acid generation ratio determined by the above-mentioned operations was judged according to the following criteria. The results are shown in Table 2. • A: 55% or more • C: less than 55% • (Light Exposure Conditions) • Photolithography machine: ArF excimer lamp (manufactured by USHIO INC.) • Illuminance (measured with a 193 nm head illuminometer): 1.8 mW/cm^2 • Integrated amount of light (measured with a 193 nm head illuminometer): 100 mJ/cm^2 <Evaluation of Solubility> (Measurement of Degree of Solubility)

Row | Acid generation ratio compared with Comparative Examples 1 to 3 | Structure (SMILES)
1 | equal to or higher | FC(F)(F)c1cccc([S+](c2ccccc2)c2ccccc2)c1 [A-9]
2 | equal to or higher | FC(F)(F)c1cccc([S+](c2ccccc2)c2ccccc2)c1 [A-6, diphenyl-3-trifluoromethylphenylsulfonium trifluoromethane sulfonate]
3 | equal to or higher | Fc1cccc([S+](c2ccccc2)c2ccccc2)c1 [A-2]
4 | equal to or higher | FC(F)(F)c1cccc([S+](c2ccccc2)c2ccccc2)c1 [A-7]
5 | equal to or higher | FC(F)(F)c1cccc([S+](c2ccccc2)c2ccccc2)c1 [A-8]
6 | equal to or higher | Fc1cccc([S+](c2ccccc2)c2ccccc2)c1 [A-3]
7 | equal to or higher | Fc1cccc([S+](c2ccccc2)c2ccccc2)c1 [A-4]
8 | equal to or higher | Fc1cccc([S+](c2ccccc2)c2ccccc2)c1 [A-1]
